In paper doi:10.1101/2019.12.26.888776:
Like-named read-outs stand apart in the source and are kept apart here. No constants are given. Whether binding was seen depends on the method and setting. In cells and extracts the contact can be indirect. Some entries that bind do so weakly or less than the wild type.

Protein sequences, listed by entry. Tags and fused reporters are not part of them.
UniProt Q62406: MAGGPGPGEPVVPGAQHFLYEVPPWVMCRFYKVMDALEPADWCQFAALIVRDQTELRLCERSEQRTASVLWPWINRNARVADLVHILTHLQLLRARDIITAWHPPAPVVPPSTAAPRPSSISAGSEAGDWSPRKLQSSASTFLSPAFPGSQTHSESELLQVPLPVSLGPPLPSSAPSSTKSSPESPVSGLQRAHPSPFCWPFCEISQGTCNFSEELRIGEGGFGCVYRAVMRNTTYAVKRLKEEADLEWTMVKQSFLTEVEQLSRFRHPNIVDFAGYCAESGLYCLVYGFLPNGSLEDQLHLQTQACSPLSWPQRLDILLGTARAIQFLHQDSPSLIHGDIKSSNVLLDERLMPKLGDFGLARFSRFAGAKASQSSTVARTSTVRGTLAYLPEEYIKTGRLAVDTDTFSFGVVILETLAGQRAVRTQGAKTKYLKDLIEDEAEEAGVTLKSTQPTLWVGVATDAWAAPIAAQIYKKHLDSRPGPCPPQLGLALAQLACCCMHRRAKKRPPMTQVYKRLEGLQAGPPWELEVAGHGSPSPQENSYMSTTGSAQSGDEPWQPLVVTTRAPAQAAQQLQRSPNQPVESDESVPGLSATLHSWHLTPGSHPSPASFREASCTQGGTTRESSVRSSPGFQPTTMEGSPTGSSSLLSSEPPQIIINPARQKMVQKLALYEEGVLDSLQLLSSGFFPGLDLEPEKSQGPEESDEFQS
UniProt Q8R4B8: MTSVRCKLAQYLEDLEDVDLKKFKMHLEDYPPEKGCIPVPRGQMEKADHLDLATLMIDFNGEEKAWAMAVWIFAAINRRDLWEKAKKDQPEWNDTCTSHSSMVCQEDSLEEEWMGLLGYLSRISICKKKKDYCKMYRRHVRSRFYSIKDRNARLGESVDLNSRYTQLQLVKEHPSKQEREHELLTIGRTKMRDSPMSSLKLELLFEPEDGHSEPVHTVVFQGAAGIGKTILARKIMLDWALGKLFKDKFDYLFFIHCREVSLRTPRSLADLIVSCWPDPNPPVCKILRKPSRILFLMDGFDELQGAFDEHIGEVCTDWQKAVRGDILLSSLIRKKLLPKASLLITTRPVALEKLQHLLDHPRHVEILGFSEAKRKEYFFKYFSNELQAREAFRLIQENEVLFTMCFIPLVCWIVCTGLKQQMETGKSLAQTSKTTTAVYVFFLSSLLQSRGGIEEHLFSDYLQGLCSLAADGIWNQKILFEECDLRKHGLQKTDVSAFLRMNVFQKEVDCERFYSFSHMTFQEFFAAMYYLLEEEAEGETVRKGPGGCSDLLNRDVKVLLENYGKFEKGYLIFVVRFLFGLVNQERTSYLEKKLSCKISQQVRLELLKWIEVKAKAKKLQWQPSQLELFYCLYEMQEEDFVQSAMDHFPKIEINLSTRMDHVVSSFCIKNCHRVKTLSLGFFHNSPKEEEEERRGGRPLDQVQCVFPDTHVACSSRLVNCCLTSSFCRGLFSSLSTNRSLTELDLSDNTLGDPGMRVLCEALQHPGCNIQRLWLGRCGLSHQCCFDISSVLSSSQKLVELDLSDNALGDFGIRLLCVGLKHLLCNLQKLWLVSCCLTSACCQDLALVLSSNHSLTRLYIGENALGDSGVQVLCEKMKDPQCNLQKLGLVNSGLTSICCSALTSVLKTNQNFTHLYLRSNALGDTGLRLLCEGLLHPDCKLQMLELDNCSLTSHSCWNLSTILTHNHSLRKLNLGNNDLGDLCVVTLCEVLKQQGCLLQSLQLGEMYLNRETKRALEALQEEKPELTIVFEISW

Key:
Assay in all cases: proximity ligation
[1] = target: murine IRAK1 with a C-terminal fused mCherry (murine) (UniProt Q62406)
[2] = target: murine IRAK1 with a C-terminal fused mCherry (murine) (UniProt Q62406); remark: listed apart in the source
[3] = target: T1, IRAK2 (mouse (endogenous in iBMDMs)) (UniProt Q8CFA1)
T1 sequence: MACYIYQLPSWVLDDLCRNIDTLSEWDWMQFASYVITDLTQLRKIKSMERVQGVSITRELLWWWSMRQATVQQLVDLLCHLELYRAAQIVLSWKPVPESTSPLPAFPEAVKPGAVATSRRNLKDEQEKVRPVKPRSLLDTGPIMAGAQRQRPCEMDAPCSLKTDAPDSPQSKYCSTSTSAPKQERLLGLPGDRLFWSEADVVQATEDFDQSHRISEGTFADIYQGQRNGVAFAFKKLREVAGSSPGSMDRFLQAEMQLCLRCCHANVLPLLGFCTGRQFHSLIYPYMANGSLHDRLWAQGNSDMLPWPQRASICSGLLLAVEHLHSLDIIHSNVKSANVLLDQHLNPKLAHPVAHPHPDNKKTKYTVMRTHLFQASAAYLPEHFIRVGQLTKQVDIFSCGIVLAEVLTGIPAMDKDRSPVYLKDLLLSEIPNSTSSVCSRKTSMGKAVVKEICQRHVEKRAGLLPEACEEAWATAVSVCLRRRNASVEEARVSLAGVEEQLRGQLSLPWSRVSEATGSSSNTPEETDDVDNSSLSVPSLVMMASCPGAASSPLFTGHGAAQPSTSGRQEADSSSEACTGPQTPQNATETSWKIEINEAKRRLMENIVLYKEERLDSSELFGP

Row | Molecule | binding [1] | binding [2] | binding [3]
1 | NLRP3 (from UniProt Q8R4B8 1-1033) | binds | – | –
2 | TRAF6 (protein, UniProt P70196 1-530) MSLLNCENSCGSSQSSSDCCAAMAASCSAAVKDDSVSGSASTGNLSSSFMEEIQGYDVEFDPPLESKYECPICLMALREAVQTPCGHRFCKACIIKSIRDAGHKCPVDNEILLENQLFPDNFAKREILSLTVKCPNKGCLQKMELRHLEDHQVHCEFALVNCPQCQRPFQKCQVNTHIIEDCPRRQVSCVNCAVSMAYEEKEIHDQSCPLANIICEYCGTILIREQMPNHYDLDCPTAPIPCTFSVFGCHEKMQRNHLARHLQENTQLHMRLLAQAVHNVNLALRPCDAASPSRGCRPEDPNYEETIKQLESRLVRQDHQIRELTAKMETQSMYVGELKRTIRTLEDKVAEMEAQQCNGIYIWKIGNFGMHLKSQEEERPVVIHSPGFYTGRPGYKLCMRLHLQLPTAQRCANYISLFVHTMQGEYDSHLPWPFQGTIRLTILDQSEALIRQNHEEVMDAKPELLAFQRPTIPRNPKGFGYVTFMHLEALRQGTFIKDDTLLVRCEVSTRFDMGGLRKEGFQPRSTDAGV | – | binds | binds
